Chains of the proteins cited; added tags and fusions are not shown. A line that says so, or that is headed by a name, gives the form on record, which may keep a tag or linker.
RIP15/RXRalpha heterodimer (Mus musculus / Homo sapiens), one chain, as listed by the source, chain 2 of 2: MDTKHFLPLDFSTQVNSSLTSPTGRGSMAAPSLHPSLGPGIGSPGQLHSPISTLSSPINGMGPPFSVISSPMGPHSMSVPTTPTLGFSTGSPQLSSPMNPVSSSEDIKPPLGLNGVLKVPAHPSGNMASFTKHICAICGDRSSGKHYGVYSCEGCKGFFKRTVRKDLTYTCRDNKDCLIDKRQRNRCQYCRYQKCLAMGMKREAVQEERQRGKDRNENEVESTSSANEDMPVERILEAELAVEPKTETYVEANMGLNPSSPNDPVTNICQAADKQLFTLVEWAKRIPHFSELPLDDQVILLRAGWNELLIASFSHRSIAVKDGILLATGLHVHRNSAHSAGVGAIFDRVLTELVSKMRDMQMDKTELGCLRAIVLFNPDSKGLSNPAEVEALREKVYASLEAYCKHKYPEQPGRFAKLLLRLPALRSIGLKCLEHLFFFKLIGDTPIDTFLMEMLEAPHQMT
RIP15/RXRalpha heterodimer (Mus musculus / Homo sapiens), one chain, as listed by the source, chain 1 of 2: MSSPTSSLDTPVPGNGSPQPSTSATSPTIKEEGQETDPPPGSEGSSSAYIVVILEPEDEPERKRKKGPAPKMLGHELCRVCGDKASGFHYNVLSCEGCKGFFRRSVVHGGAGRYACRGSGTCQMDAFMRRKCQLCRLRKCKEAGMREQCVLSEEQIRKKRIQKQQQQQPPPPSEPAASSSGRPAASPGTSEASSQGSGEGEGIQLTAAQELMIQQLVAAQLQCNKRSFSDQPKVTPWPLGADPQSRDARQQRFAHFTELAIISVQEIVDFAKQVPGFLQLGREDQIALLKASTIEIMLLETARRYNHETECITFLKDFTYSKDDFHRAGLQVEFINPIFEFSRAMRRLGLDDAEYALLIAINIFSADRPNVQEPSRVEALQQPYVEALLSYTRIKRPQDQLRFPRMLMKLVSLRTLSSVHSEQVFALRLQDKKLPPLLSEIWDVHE

In US20060287503:

Assays:
Assay in all cases: EMSA
[1] = test system: RIP14C (RIP14-1 with MYTG insertion in D domain)/RXRalpha heterodimer insertion of MYTG in D domain of RIP14-1 at the position found in RIP14-2 (Mus musculus / Homo sapiens); conditions: similar to RIP14-1/RXR; protein translated in vitro; protein details: human RXRalpha expressed in E. coli; label: 32P end label
RIP14-1 (Mus musculus) = target: T1, RIP14-1 (Mus musculus) (UniProt Q60641); conditions: protein translated in vitro, label: 32P end label
T1 sequence: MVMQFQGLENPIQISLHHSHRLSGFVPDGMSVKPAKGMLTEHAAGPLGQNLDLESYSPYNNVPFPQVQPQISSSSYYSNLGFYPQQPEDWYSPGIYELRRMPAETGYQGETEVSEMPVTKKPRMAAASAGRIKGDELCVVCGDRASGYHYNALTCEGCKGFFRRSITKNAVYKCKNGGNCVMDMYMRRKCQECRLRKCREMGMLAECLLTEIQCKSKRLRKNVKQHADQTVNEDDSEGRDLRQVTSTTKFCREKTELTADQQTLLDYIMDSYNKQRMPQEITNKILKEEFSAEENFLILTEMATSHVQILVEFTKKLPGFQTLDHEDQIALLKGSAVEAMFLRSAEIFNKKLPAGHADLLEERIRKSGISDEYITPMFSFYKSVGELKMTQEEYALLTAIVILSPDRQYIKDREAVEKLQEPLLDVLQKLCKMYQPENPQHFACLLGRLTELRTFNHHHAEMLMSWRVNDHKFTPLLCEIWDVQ

[2] = test system: RIP15/RXRalpha heterodimer (Mus musculus / Homo sapiens); conditions: protein translated in vitro; protein details: human RXRalpha expressed in E. coli; label: 32P end label

“CTAGACAAGGGTTCAATGCACTTGTCCATCG (double strand) [hsp27 EcRE]”: binds [1]; no binding (RIP14-1 (Mus musculus); without RXR).
“GATCCGGGTAGGGTTCACCGAAAGTTCACTCGA (double strand) [betaRARE]”: binds [1]; binds [2]; binds more weakly (RIP14-1 (Mus musculus); some binding without RXR).

Construct, isoform or probe ends are uncertain for at least one entry. For some assays here: No signal at the amounts used counts as a negative. For some assays here: Where a protein sequence is shown, tags need not be part of it. For some assays here: The comparison behind a weaker result is the experiment's own reference, which may not be listed here.
